# Where “and” joins values, the source holds several entries; their conditions need not be identical. Identical values can stand only once. ± gives the standard deviation of the averaged measurements. Whole data set: some 3,800 compounds, median “cell shape (eccentricity) Z-score vs DMSO control” near 1.1, cut for the lowest 2% near -4.7. This is one part of the list.
# System: human monocyte-derived macrophages (M0)
# Assay: cell shape (eccentricity) Z-score vs DMSO control; higher = more elongated, M2-like morphology
# Conditions: 20 µM; 24 h; macrophage state: M0 (M-CSF)
row,SMILES,cell shape (Z-score)
1,CC(=O)CCCC1Cc2cccc(O)c2C(=O)O1 (stereo not drawn),1.55
2,Cn1cnc([N+](=O)[O-])c1Cl,-0.296
3,Nc1cc(N2CCCCC2)nc(N)[n+]1[O-],-1.47
4,COc1ccccc1N1CCN(CCCCN2C(=O)CCC2=O)CC1,2.45
5,O=c1ccc2ccccc2o1,0.0243
6,O=C1CC(c2ccc(O)c(O)c2)Oc2c1ccc(O)c2O (stereo not drawn),3.28
7,O=C(CCCN1CCC(O)(c2ccc(Cl)cc2)CC1)c1ccc(F)cc1,-2.24
8,CCCc1cc(C(=N)S)ccn1,2.41
9,Nc1ccc(-c2nc3ccc(-c4nc5ccc(N)cc5[nH]4)cc3[nH]2)cc1,-0.879
10,COc1cc(O)c(Cc2ccccc2O)c(O)c1C(=O)CCc1ccccc1,1.81
11,COc1c(OC2OC(CO)C(O)C(O)C2O)cc(O)c2c1OC(c1ccccc1)CC2=O (stereo not drawn),1.91
12,C/C=C(/C)C(=O)OC1c2c(ccc3ccc(=O)oc23)OC(C)(C)C1OC(=O)/C(C)=C\C (stereo not drawn),0.395 ± 1.2
13,CCC[C@@H]1C[C@@H](C(=O)NC(C(C)Cl)C2O[C@H](SC)[C@H](O)[C@@H](O)[C@H]2O)N(C)C1 (stereo partly drawn),3.16
14,CC(C)(O)CCC(=O)C(C)(O)C1C(O)CC2(C)C3CC=C4C(CC(OC5OC(CO)C(O)C(O)C5O)C(O)C4(C)C)C3(C)CCC12C (stereo not drawn),-0.37
15,COc1cc(CCC(=O)N2CCC=CC2=O)cc(OC)c1OC,-1.14
16,CCCCOc1cc(CC2CNC(=O)N2)ccc1OC (stereo not drawn),1.82
17,O=C(O)CCc1ccc(NCc2cccc(Oc3ccccc3)c2)cc1,2.96
18,Nc1c(CC(=O)O)cccc1C(=O)c1ccc(Br)cc1,2.14
19,C=C1CCC2C(C)(CO)CCCC2(C)C1CC/C(C)=C/C(=O)O (stereo not drawn),-4.24
20,CO[C@H]1/C=C/O[C@@]2(C)Oc3c(C)c(O)c4c(O)c(c(C=NN5CCN(C)CC5)c(O)c4c3C2=O)NC(=O)/C(C)=C\C=C\C(C)[C@H](O)[C@@H](C)[C@@H](O)[C@@H](C)[C@@H](OC(C)=O)[C@@H]1C (stereo partly drawn),0.7
21,CCOc1ccc2nc3cc(N)ccc3c(N)c2c1,-2.89
22,C=C1C2CC[C@@]3(C)[C@H](c4ccoc4)OC(=O)C[C@]13O[C@H]1CC(=O)C(C)(C)[C@H](C(O)C(=O)OC)[C@@]21C (stereo partly drawn),1.29
23,COc1ccc2c(c1)OC1(O)COc3cc(OC)c(OC)cc3C1=C2 (stereo not drawn),3.52
24,O=C(Nc1cc(CN2CCNCC2)cc(-c2nc3ccccc3[nH]2)c1)c1cnc2ccccc2n1,2.25
25,COc1cccc2c1C(=O)c1ccc3c(c1C2=O)C(=O)CC(C)(O)C3 (stereo not drawn),-0.685

row,SMILES,cell shape (Z-score)
1,O=C(O)CCC(=O)Cc1ccccc1,1.26
2,COC1=CC(=O)C(=O)C/C1=C\C=C\c1ccccc1,1.49
3,COc1ccc([C@H]2CNC(=O)C2)cc1OC1CCCC1,5.39
4,COc1cc2c(CCNC(C)=O)c[nH]c2cc1Cl,1.18
5,COc1c(C)c2c(c(O)c1C/C=C(\C)CCC(=O)O)C(=O)OC2,-3.16
6,C=C1/C(=C\C=C2/CCC[C@]3(C)C(C(C)C/C=C/C(O)(CC)CC)=CC[C@@H]23)C[C@@H](O)C[C@@H]1F (stereo partly drawn),3.94
7,O=c1c(O)c(-c2ccccc2)oc2ccccc12,1.62
8,CC[C@@]1(O)C(=O)OCc2c1cc1n(c2=O)Cc2cc3c(CN(C)C)c(O)ccc3nc2-1,-2.01 and -0.904
9,CCN(CC)CCOC(=O)C(c1ccccc1)c1ccccc1,3.12
10,CCOC(=O)c1ccc(N)cc1,-0.083
11,CC(C)(C)CC(C)(C)c1ccc(O)c(Cc2ccc(Cl)cc2Cl)c1,-1.35
12,CCCCC(C=O)NC(=O)C(CC(C)C)NC(=O)OCc1ccccc1 (stereo not drawn),1.22
13,CCCN(CCC)C(=O)C(CCC(=O)O)NC(=O)c1ccccc1 (stereo not drawn),0.978
14,CC1=C(CC/C(C)=C/C(=O)O)[C@@]2(C)CCCC(C)(C)C2CC1 (stereo partly drawn),-3.29
15,COc1cc(OC)c(O[C@@H]2O[C@H](COC(=O)c3cc(O)c(O)c(O)c3)[C@@H](O)[C@H](O)[C@H]2O)c(OC)c1,-0.208
16,COc1cc2oc(-c3ccc(O)cc3)cc(=O)c2c(O)c1OC,6.67
17,COc1cc2c(cc1-c1c(C)noc1C)ncc1[nH]c(=O)n([C@H](C)c3ccccn3)c12,10.2
18,COc1cc(NC(C)CCCN)c2ncccc2c1 (stereo not drawn),-0.136
19,CC1(C)CCN(c2ccc(C(=O)NS(=O)(=O)c3ccc(NCCSc4ccccc4)c([N+](=O)[O-])c3)cc2)CC1,2.76
20,COc1ccc(-c2cc(=O)c3c(O)c(OC)c(OC)c(OC)c3o2)cc1OC,4.17
21,CC1OC(O[C@H]2[C@@H](O)C[C@@]3(C)C(CC[C@]4(C)C3CC=C3[C@@H]5CC(C)(C)CC[C@]5(C(=O)OC5OC(C)C(OC6OCC(OC7OCC(O)C(OC8OCC(O)C(O)C8O)C7O)C(O)C6O)C(O)C5O)CC[C@]34C)[C@]2(C)CO)C(O)C(OC2OC(CO)C(O)C(O)C2O)C1O (stereo partly drawn),0.13
22,Cc1ccc2c(c1)C(=O)C1(O)CCN(c3ccccc3)C1=N2 (stereo not drawn),4.21
23,COc1cc(O)c(C(=O)c2c(O)cc(C)cc2O)c(C(=O)O)c1,1.14 ± 0.29
24,COc1ccc2cc([C@H](C)CO)ccc2c1,1.72
25,CN(C)C(=O)c1ccc(S(=O)(=O)c2ccc(NC(=O)[C@@](C)(O)C(F)(F)F)c(Cl)c2)cc1,0.907

row,SMILES,cell shape (Z-score)
1,COc1cc(O[C@@H]2O[C@H](CO)[C@@H](O)[C@H](O)[C@H]2O)cc(OC)c1OC,1.98
2,O=C(C=Cc1ccc(O)c(O)c1)OCCc1ccccc1,-1.93
3,COc1ccc2ccc(=O)oc2c1CC(O)C(C)(C)O (stereo not drawn),0.763
4,COc1ccc2c3c1O[C@H]1C[C@@H](O)C=C[C@@]31CCN(C)C2,1.93
5,Cc1cc(O)c(C)c2c1Oc1c(C)c(O)cc(C)c1C(=O)O2,-6.49
6,CC(C)(C)c1cc(/C=C(\C#N)C(N)=S)cc(C(C)(C)C)c1O,-0.33
7,NCCNS(=O)(=O)c1cccc2cnccc12,-0.135
8,COc1cc2c(cc1OC)C(=O)OC2,-1.22
9,Oc1cc2c(c(Cl)c1O)CCNCC2c1ccccc1 (stereo not drawn),2.16
10,NS(=O)(=O)c1cc(C(=O)O)c(NCc2ccco2)cc1Cl,1.08
11,CCOC(=O)C1C(=O)C(=O)Nc2ccccc21 (stereo not drawn),2.09
12,O=C1c2ccccc2C(Cc2ccnc(F)c2)(Cc2ccnc(F)c2)c2ccccc21,-4.23
13,COc1cc(C)c(C(=O)Oc2cc(C)c(C(=O)O)c(O)c2C)c(OC)c1C,-0.976
14,CC(=O)O[C@@H]1CC2C(C)(C)CCC[C@]2(CO)C2=C1C(=O)C(C(C)C)C(=O)C2=O (stereo partly drawn),-0.0999
15,CCC(=O)OCC1=CCCC2C1(C)CCC(C)C2(C)CCC(C)CC(=O)O (stereo not drawn),0.255
16,NS(=O)(=O)c1cc2c(cc1Cl)NC(C1CC3C=CC1C3)NS2(=O)=O (stereo not drawn),2.88
17,COc1ccc2c(c1)OCC(Cc1ccc(OC)c(O)c1)C2=O (stereo not drawn),-0.431
18,CC#CC1(O)CCC2C3CCC4=CC(=O)CCC4=C3C(c3ccc(N(C)C)cc3)CC21C (stereo not drawn),0.153
19,C/C(=C\c1ccc(C(=O)O)cc1)c1ccc2c(c1)C(C)(C)CCC2(C)C,11
20,C[C@]12CCC3c4ccc(OS(=O)(=O)O)cc4CCC3C1CCC2=O (stereo partly drawn),3.08
21,CC(=O)OC(C)(C)[C@@H]1Cc2cc3ccc(=O)oc3cc2O1,3.1
22,CCC1OC(=O)[C@H](C)C(=O)[C@H](C)[C@@H](OC2O[C@H](C)C[C@H](N(C)C)[C@H]2O)[C@](C)(OC)C[C@@H](C)C(=O)[C@H](C)[C@H]2N(CCCCn3cnc(-c4cccnc4)c3)C(=O)O[C@@]12C (stereo partly drawn),0.0565
23,NCCNS(=O)(=O)c1cccc2c(Cl)cccc12,4.03
24,CCCCCCCCNC(=O)C(Cc1ccc(OCc2ccncc2)cc1)NC(=O)C1CCC(CN)CC1 (stereo not drawn),0.253
25,C#CCN(C)Cc1ccccc1,3.91

row,SMILES,cell shape (Z-score)
1,C=C(C)C(O)Cc1c(OC)cc2oc(=O)ccc2c1OC (stereo not drawn),2.06
2,COc1c2ccoc2cc2oc(=O)ccc12,4.33
3,C/C=C(/C)C(=O)O[C@@H]1C[C@@H](OC(=O)/C(C)=C\C)[C@](C)(CO)C2C3C(=O)C[C@@H](C)C2[C@]31C,1.6
4,COc1ccc(C(=O)Oc2ccc(C)c3c2C(=O)OC(C)C3)c2c1C(=O)OC(C)C2 (stereo not drawn),-0.0802
5,CC1COc2c(N3CCN(C)CC3)c(F)cc3c(=O)c(C(=O)O)cn1c23 (stereo not drawn),-0.258
6,CN(C)CCOC(c1ccc(Cl)cc1)c1ccccn1 (stereo not drawn),2.56
7,O=C(NO)c1cccc(C(=O)Nc2ccccc2)c1,2.99
8,COc1ccc(C2Oc3cc(OC)ccc3CC2O)cc1 (stereo not drawn),1.66 ± 1.2
9,COc1cc(O)c2c(=O)cc(-c3ccccc3)oc2c1OC,2.46
10,CC(C)[C@H](CO)Nc1nc(Nc2ccc(C(=O)O)c(Cl)c2)c2ncn(C(C)C)c2n1,1.97
11,CC(C)=CCC1Cc2c(cc(O)c(C(=O)C(C)C)c2O)OC1(C)C (stereo not drawn),3.41
12,CCn1cc(C(=O)O)c(=O)c2cc(F)c(N3CCNCC3)cc21,1.32
13,O=C(c1c(O)c2ccc(Cl)cc2[nH]c1=O)C1CC1,0.406
14,O=C(Nc1cccc(NC(=O)c2cccc(O)c2O)c1)c1cccc(O)c1O,-0.571
15,CC12CCC3c4ccc(O)cc4CCC3C1C[C@H](O)[C@@H]2O (stereo partly drawn),1.07
16,COC(=O)c1c(O)cc(C)cc1Oc1c(O)cc(OC)cc1CO,-0.773 ± 0.63
17,CCNC(=O)CCCC=CC[C@@H]1[C@H](C=C[C@H](O)CCc2ccccc2)[C@@H](O)C[C@@H]1O,-0.32
18,COc1cc(O)c(CC=C(C)C)c(O)c1C(=O)CCc1ccc(O)cc1,-0.218
19,CC(C)(C)NC(=O)[C@@H]1CN(Cc2cccnc2)CCN1C[C@@H](O)C[C@@H](Cc1ccccc1)C(=O)NC1c2ccccc2C[C@@H]1O (stereo partly drawn),0.625
20,O=C(CCc1ccc(O)cc1)c1c(O)c([C@@H]2O[C@H](CO)[C@@H](O)[C@H](O)[C@H]2O)c(O)c([C@@H]2O[C@H](CO)[C@@H](O)[C@H](O)[C@H]2O)c1O,0.000463
21,O=C(Nc1nc2ccc(NC(=O)C34C[C@H]5C[C@@H](C3)C[C@@H](C4)C5)cc2s1)c1ccccc1,-4.79
22,Brc1c(Br)c(Br)c2[nH]nnc2c1Br,-0.429
23,C[C@@H]1CC[C@]2(C(=O)O)CC[C@]3(C)C(=CCC4[C@@]5(C)CC[C@H](O)C(C)(C)C5CC[C@]43C)C2[C@H]1C (stereo partly drawn),0.61

# Source: the supplement of paper PMC7858590
